PubChem BioAssay AID504764, Drosophila RNAi Screening Center – 2011
The screen tested about 22,000 reagents; shown is an unselected part of those that have a named target and a result. In the full data, 403 (1.9%) got an active call. 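Unnormalised raw counts per well; ratio z-scores behind the hit calls and whether each hit raises or lowers signal are not deposited.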 Names joined by + are all predicted targets of the reagent. No sequences are given here. Not stated in the record: the amount of reagent.

Assay: 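Knock-downs that raise or lower a Notch target reporter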 (primary screen)
System: Drosophila Kc167 cells
Reagent: long dsRNA against Drosophila genes
Duration: about 5 days (4 days dsRNA, then 24 h after transfection)
Treatment: transfection of constitutively active membrane-tethered Notch lacking the extracellular domain, read 24 h later
Read-out: 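Light from a Notch-responsive E(spl)m3 luciferase reporter under active Notch, with control-promoter and no-Notch reporter wells to normalise; raw counts from paired wells a and b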
Reading the numbers: induced reporter light, run 1, well a and induced reporter light, run 1, well b: higher = more light from the Notch target reporter with active Notch; control promoter light, run 1, well a and control promoter light, run 1, well b: higher = more light from the viral control promoter (cell number, transfection, viability); uninduced reporter light, run 1, well a: higher = more light from the Notch target reporter without active Notch
Rule for the call: 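Wells with low control signal or poorly matching duplicates excluded; duplicates averaged; per source plate, z beyond ±2 for induced/control log2 ratio or beyond ±1.8 for induced/uninduced marks a hit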
Meaning of the calls: active = modifier hit (raised or lowered Notch signal); inactive = not a hit

| Target gene | dsRNA | induced reporter light, run 1, well a | induced reporter light, run 1, well b | control promoter light, run 1, well a | control promoter light, run 1, well b | uninduced reporter light, run 1, well a | Call |
| --- | --- | --- | --- | --- | --- | --- | --- |
| PolrMT (RNA polymerase mitochondrial) | DRSC00660 | 74680 | 95360 | 87990 | 90335 | 5635 | inactive |
| CG9289 | DRSC03187 | 1.34e5 | 1.56e5 | 1.03e5 | 1.47e5 | 22885 | inactive |
| CG42615 | DRSC05121 | 42370 | 52285 | 67905 | 70275 | 2415 | inactive |
| CG4009 | DRSC15536 | 2.04e5 | 2.19e5 | 2.51e5 | 2.41e5 | 17320 | inactive |
| CG11226 | DRSC11639 | 1.26e5 | 1.04e5 | 1.02e5 | 1.10e5 | 7600 | inactive |
| Raf (Raf oncogene) | DRSC18821 | 1.42e5 | 1.31e5 | 1.41e5 | 1.34e5 | 9870 | inactive |
| CG14109 | DRSC10112 | 1.32e5 | 1.15e5 | 1.44e5 | 1.36e5 | 8025 | inactive |
| CG4480 | DRSC02750 | 1.44e5 | 1.45e5 | 1.60e5 | 1.71e5 | 11095 | inactive |
| CG4502 | DRSC02755 | 1.35e5 | 1.36e5 | 94375 | 1.02e5 | 8770 | inactive |
| Rrp6 | DRSC16223 | 21575 | 25265 | 23645 | 25190 | 1700 | inactive |
| CG12290 | DRSC14497 | 1.52e5 | 1.99e5 | 1.93e5 | 2.06e5 | 12855 | inactive |
| Parg (Poly(ADP-ribose) glycohydrolase) | DRSC18696 | 1.83e5 | 1.89e5 | 2.27e5 | 2.39e5 | 11542 | inactive |
| CG10465 | DRSC04848 | 1.88e5 | 1.49e5 | 1.71e5 | 1.72e5 | 13182 | inactive |
| CkIalpha (Casein kinase Ialpha) | DRSC20231 | 54435 | 45325 | 58985 | 64600 | 3510 | inactive |
| CkIalpha (Casein kinase Ialpha) | DRSC22609 | – | – | – | – | – | active |
| CG31926 | DRSC00295 | 1.17e5 | 1.20e5 | 79655 | 82830 | 10092 | inactive |
| CG6656 | DRSC16085 | 1.88e5 | 1.65e5 | 2.53e5 | 2.16e5 | 16740 | inactive |
| CG5191 | DRSC15733 | 98730 | 1.12e5 | 89775 | 1.12e5 | 8600 | inactive |
| CG5191 | DRSC15734 | 1.47e5 | 1.42e5 | 2.02e5 | 2.00e5 | 12100 | inactive |
| CG12769 | DRSC06167 | 1.78e5 | 1.72e5 | 1.52e5 | 1.64e5 | 13650 | inactive |
| rdgB (retinal degeneration B) | DRSC20365 | 1.76e5 | 1.69e5 | 3.07e5 | 2.57e5 | 12955 | inactive |
| Lar (Leukocyte-antigen-related-like) | DRSC01707 | 82320 | 60695 | 79490 | 65640 | 5870 | inactive |
| Lar (Leukocyte-antigen-related-like) | DRSC03361 | 2.06e5 | 2.12e5 | 1.81e5 | 1.98e5 | 15510 | inactive |
| Vajk4 | DRSC06589 | 1.14e5 | 1.03e5 | 1.69e5 | 2.24e5 | 10320 | inactive |
| Vajk4 | DRSC07003 | 1.23e5 | 84390 | 1.23e5 | 1.36e5 | 8805 | inactive |
| CG4338 | DRSC15564 | 1.49e5 | 1.51e5 | 91560 | 1.03e5 | 10795 | inactive |
| CG10140 | DRSC09704 | 1.58e5 | 1.71e5 | 1.99e5 | 1.65e5 | 10280 | inactive |
| CG11050 | DRSC02125 | 88305 | 89610 | 66710 | 63410 | 13185 | inactive |
| Odc1 (Ornithine decarboxylase 1) | DRSC07482 | 1.85e5 | 1.62e5 | 2.17e5 | 2.16e5 | 20330 | inactive |
| CG18661 | DRSC02690 | 1.20e5 | 1.65e5 | 85085 | 1.03e5 | 22030 | inactive |
| CG6983 | DRSC10757 | 85845 | 77515 | 68830 | 24805 | 9895 | inactive |
| Epac (Exchange protein directly activated by cAMP) | DRSC04969 | 1.57e5 | 1.73e5 | 2.58e5 | 2.76e5 | 14310 | inactive |
| Epac (Exchange protein directly activated by cAMP) | DRSC04996 | 72860 | 81215 | 49975 | 54110 | 4415 | inactive |
| Epac (Exchange protein directly activated by cAMP) | DRSC04997 | 1.92e5 | 1.99e5 | 1.74e5 | 1.79e5 | 12295 | inactive |
| DptB (Diptericin B) | DRSC06001 | 87925 | 77600 | 1.01e5 | 89190 | 7205 | inactive |
| E(spl)m4-BFM (Enhancer of split m4, Bearded family member) | DRSC16992 | 1.76e5 | 1.66e5 | 1.43e5 | 1.63e5 | 13510 | inactive |
| Gprk1 (G protein-coupled receptor kinase 1) | DRSC20732 | 2.15e5 | 2.12e5 | 2.74e5 | 2.97e5 | 15788 | inactive |
| Gprk1 (G protein-coupled receptor kinase 1) | DRSC20916 | 2.51e5 | 1.88e5 | 3.45e5 | 3.23e5 | 15010 | inactive |
| Ir51b (Ionotropic receptor 51b) | DRSC05540 | 2.22e5 | 1.90e5 | 2.34e5 | 2.78e5 | 16245 | inactive |
| Zip42C.1 (Zinc/iron regulated transporter-related protein 42C.1) | DRSC05003 | 1.60e5 | 1.39e5 | 1.72e5 | 1.65e5 | 10110 | inactive |
| Naa35 (N(alpha)-acetyltransferase 35) | DRSC04447 | 1.76e5 | 1.88e5 | 1.81e5 | 2.15e5 | 12015 | inactive |
| CG18294 + 825-Oak + CG32214 + 2 more | DRSC22210 | – | – | – | – | – | inactive |
| CG16781 | DRSC18117 | 1.35e5 | 1.28e5 | 2.20e5 | 1.92e5 | 9980 | inactive |
| CG34334 | DRSC20643 | 1.00e5 | 1.07e5 | 1.02e5 | 1.06e5 | 10275 | inactive |
| polyph (polyphemus) | DRSC06254 | 2.26e5 | 2.06e5 | 2.66e5 | 2.84e5 | 18435 | inactive |
| CG31882 | DRSC01084 | 1.38e5 | 1.49e5 | 1.36e5 | 1.56e5 | 11455 | inactive |
| uncNacbeta | DRSC00326 | 1.06e5 | 1.07e5 | 1.13e5 | 72300 | 7835 | inactive |
| RpS5a (Ribosomal protein S5a) | DRSC20282 | 91555 | 92660 | 69755 | 30050 | 5445 | inactive |
| Ir52a (Ionotropic receptor 52a) | DRSC06262 | 1.02e5 | 1.17e5 | 1.65e5 | 1.38e5 | 9305 | inactive |
| GATAd | DRSC02803 | 2.20e5 | 2.76e5 | 2.08e5 | 2.41e5 | 17640 | inactive |
